Data: the supplement of paper PMC10849652
The other results are listed elsewhere or left out.

Chains of the proteins cited; added tags and fusions are not shown. Lines headed by an entry give the natural chain unless they say otherwise; changes in a name come on top.
UniProt Q53R41: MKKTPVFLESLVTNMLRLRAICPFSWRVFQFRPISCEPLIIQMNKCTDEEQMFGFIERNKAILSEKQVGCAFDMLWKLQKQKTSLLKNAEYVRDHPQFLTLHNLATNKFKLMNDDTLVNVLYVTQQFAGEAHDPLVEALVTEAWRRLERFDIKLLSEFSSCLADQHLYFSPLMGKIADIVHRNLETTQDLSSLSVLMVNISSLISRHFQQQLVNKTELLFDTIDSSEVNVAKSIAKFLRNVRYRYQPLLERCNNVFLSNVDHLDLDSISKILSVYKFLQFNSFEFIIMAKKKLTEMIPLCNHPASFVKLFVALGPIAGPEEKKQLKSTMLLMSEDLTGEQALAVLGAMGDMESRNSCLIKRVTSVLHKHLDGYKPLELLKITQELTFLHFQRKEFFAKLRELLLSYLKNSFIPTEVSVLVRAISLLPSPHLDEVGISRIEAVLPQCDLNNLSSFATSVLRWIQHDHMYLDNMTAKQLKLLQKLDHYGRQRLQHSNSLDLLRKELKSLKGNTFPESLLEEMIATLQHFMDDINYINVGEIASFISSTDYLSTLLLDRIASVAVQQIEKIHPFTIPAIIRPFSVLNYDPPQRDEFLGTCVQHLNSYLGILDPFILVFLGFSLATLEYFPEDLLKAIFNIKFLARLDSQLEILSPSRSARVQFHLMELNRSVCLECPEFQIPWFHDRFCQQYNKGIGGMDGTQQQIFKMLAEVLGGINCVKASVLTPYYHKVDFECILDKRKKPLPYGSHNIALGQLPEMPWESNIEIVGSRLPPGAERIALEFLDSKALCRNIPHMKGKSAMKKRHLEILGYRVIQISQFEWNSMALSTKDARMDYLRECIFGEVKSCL
UniProt Q96AC1: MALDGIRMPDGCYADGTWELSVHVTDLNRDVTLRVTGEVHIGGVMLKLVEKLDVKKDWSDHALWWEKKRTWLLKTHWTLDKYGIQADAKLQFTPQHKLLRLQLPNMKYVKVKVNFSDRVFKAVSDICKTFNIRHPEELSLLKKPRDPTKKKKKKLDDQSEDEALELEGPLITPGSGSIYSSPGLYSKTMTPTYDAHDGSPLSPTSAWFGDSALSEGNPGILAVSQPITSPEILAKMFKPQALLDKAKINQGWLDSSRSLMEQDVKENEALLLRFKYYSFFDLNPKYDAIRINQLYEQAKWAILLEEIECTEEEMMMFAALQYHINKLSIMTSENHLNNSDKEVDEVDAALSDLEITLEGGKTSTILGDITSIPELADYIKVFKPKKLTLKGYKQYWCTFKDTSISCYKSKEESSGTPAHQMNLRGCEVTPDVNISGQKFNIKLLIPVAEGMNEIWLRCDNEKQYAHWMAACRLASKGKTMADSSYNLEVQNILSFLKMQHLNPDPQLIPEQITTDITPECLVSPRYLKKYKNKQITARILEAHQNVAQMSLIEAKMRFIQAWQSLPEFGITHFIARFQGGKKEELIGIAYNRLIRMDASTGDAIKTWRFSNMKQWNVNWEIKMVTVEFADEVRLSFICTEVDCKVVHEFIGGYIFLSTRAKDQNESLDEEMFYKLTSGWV
UniProt Q86WN1: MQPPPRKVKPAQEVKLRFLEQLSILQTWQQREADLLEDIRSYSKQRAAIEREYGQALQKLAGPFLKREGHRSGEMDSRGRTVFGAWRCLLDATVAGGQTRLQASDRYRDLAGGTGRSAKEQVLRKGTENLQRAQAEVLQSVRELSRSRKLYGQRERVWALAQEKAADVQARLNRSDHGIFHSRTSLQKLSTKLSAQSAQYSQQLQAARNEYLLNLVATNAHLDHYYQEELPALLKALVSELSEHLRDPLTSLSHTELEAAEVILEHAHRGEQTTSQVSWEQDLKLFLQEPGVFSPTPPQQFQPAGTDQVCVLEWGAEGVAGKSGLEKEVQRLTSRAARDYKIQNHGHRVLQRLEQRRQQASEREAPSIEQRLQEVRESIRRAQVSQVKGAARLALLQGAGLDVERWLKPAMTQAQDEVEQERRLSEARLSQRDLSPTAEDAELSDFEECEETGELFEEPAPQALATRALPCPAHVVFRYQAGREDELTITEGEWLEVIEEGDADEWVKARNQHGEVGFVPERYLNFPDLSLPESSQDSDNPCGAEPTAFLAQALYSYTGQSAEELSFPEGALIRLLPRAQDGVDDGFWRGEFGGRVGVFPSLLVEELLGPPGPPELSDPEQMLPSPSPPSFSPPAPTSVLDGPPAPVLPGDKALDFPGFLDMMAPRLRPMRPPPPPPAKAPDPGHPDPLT
UniProt P02679: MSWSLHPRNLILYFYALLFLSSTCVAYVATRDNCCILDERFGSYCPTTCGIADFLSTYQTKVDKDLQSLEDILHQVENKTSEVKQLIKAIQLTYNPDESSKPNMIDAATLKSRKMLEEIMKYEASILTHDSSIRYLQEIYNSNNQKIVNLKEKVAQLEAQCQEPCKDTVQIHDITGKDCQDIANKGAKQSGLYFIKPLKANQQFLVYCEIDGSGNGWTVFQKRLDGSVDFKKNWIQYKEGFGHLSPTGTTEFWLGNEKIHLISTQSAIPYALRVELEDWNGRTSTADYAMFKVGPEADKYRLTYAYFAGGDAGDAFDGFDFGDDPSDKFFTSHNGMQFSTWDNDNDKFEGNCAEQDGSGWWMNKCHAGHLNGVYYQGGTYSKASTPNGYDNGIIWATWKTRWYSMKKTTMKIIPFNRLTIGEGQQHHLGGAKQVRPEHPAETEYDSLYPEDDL
UniProt Q96C11: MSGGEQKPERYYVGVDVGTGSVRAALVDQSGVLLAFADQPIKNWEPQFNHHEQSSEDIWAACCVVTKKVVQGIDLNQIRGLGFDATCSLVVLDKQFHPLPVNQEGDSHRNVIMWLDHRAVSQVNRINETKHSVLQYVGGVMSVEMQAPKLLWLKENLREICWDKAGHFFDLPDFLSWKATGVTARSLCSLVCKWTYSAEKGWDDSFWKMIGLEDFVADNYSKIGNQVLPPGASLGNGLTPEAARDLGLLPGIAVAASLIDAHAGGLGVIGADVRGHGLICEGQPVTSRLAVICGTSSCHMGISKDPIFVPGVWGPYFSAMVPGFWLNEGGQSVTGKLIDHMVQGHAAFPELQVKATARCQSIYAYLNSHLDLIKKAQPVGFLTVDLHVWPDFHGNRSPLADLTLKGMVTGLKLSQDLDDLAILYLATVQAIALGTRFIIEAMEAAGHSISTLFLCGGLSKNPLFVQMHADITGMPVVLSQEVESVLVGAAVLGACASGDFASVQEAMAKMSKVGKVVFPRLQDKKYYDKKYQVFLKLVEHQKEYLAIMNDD
UniProt O95466, whole entry, looked up: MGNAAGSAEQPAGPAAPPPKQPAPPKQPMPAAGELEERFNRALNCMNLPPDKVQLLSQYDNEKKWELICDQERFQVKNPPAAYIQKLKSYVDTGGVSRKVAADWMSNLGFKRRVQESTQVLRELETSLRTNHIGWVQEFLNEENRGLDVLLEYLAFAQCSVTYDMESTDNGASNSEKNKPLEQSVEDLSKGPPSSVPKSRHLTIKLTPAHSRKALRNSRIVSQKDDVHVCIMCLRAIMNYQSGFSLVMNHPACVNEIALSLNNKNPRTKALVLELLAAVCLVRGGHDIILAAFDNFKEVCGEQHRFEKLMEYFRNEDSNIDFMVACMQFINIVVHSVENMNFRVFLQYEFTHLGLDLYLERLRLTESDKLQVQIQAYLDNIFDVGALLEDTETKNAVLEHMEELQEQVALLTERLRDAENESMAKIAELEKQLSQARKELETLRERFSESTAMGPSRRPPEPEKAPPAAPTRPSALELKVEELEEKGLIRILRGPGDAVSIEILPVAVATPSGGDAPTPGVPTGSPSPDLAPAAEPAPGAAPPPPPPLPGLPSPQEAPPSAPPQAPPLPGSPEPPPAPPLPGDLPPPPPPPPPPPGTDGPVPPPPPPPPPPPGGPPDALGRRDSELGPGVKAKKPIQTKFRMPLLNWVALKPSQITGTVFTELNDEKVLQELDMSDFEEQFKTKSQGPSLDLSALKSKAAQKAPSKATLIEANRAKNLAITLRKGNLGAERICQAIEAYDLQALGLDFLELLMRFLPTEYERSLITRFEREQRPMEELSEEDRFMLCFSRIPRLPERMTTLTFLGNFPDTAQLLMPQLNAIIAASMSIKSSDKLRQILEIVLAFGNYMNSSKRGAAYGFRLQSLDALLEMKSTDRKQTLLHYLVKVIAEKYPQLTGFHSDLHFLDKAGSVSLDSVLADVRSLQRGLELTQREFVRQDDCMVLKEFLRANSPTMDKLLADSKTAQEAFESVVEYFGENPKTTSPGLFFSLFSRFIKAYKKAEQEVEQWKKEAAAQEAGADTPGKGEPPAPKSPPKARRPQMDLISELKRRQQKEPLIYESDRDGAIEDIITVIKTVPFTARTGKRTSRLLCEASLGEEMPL
UniProt Q13642: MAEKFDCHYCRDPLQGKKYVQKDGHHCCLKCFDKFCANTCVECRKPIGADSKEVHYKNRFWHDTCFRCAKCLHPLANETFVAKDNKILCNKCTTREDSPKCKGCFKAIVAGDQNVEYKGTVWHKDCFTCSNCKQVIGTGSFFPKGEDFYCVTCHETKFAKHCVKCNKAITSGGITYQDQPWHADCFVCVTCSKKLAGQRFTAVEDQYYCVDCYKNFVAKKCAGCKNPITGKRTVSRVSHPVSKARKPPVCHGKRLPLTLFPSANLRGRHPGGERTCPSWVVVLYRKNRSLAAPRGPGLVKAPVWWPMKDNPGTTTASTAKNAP
UniProt Q96RU3: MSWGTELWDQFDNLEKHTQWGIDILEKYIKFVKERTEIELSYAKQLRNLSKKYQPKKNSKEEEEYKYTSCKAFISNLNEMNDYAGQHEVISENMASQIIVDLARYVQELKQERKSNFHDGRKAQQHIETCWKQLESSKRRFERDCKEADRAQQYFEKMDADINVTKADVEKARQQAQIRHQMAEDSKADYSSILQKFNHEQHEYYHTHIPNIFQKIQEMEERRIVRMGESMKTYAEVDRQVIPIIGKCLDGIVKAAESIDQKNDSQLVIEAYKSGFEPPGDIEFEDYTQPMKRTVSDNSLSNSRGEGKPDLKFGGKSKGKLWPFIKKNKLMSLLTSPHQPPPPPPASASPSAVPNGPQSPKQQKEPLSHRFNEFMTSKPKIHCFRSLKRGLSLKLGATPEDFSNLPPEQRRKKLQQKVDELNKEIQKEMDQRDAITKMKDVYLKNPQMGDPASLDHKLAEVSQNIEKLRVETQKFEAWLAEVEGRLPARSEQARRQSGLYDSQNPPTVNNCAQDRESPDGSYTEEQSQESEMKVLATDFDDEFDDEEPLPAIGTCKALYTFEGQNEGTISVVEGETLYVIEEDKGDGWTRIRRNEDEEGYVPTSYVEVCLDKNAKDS
UniProt Q96SL8: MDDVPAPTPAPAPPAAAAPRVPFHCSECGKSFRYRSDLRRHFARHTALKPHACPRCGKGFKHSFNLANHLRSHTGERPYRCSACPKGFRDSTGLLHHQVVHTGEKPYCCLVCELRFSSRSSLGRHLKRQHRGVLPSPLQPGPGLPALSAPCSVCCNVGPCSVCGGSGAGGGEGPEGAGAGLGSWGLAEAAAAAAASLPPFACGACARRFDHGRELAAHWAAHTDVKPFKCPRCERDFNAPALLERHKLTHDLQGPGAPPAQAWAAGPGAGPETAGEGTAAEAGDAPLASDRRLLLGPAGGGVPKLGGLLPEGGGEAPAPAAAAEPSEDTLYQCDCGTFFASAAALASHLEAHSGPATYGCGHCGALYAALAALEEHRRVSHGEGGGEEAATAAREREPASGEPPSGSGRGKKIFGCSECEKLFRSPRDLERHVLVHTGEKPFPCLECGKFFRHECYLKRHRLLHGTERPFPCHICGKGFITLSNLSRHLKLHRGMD
UniProt Q9UK22: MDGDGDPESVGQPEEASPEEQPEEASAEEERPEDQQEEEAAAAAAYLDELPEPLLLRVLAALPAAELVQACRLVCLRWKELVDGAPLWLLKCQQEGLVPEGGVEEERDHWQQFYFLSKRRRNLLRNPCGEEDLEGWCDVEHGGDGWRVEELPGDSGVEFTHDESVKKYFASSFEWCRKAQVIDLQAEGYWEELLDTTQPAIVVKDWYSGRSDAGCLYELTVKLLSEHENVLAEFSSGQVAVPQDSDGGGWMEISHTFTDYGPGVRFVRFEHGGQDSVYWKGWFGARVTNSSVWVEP
UniProt Q14153: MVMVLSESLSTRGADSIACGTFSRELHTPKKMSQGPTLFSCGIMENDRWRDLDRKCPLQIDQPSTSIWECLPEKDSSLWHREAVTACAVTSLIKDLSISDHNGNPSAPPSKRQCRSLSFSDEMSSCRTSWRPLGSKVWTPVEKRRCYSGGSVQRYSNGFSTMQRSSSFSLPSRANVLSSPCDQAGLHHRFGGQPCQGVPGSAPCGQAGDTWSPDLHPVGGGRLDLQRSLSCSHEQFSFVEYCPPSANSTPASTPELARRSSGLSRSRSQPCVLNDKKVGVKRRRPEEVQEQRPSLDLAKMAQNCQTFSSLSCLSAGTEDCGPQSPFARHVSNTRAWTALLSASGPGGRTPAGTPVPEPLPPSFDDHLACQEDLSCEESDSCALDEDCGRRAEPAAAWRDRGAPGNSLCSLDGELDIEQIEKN

Assays:
Experiment in all cases: log2 fold change, soluble protein after heating vs DMSO (PISA); higher = thermal stabilisation; K562 cells, 10 uM, 30 min; active = over 0.2 and 3.5 SD of the protein, either way, in both replicates (recomputed)
[1] = compound: CC1=C(C=C(C=C1)NC(=O)C2=CC(=CC=C2)C(C)(C)C#N)NC3=CC4=C(C=C3)N=CN(C4=O)C
Summary of the method: (§1)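 K562 cells at 2×10^6 cells/mL were given 10 μM compound for 30 min. Aliquots then went through 3 min of heating across 48°C-58°C, were pooled, and were extracted in PBS with 0.5% NP-40 at 4°C, and the supernatant after 21,000xg for 90 min was quantified by TMTpro 16plex LC-MS/MS with channel sums equalised. Thermal stability relative to control samples, from duplicates, is given as log2 fold change.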

[2] = compound: CC1=C(C=C(C=C1)NC(=O)C2=CC(=CC=C2)N(C)C)NC(=O)C3=CC=C(C=C3)O
Summary of the method: as §1

[3] = compound: CC1=CC=C(C=C1)SC2=C3C=C(SC3=CN=C2)C(=O)N
Summary of the method: as §1

Nexturastat A = compound: CCCCN(Cc1ccc(C(=O)NO)cc1)C(=O)Nc1ccccc1 [Nexturastat A]
Summary of the method: as §1

vemurafenib = compound: CCCS(=O)(=O)Nc1ccc(F)c(C(=O)c2c[nH]c3ncc(-c4ccc(Cl)cc4)cc23)c1F [vemurafenib]
Summary of the method: as §1

[4] = compound: CCCS(=O)(=O)Nc1ccc(F)c(C(=O)c2c[nH]c3ncc(Cl)cc23)c1F
Summary of the method: as §1

[5] = compound: CCCc1cc(C)[nH]c(=O)c1CNC(=O)c1cc(-c2ccnc(N3CCN(C)CC3)c2)cc2c1cnn2C(C)C
Summary of the method: as §1

givinostat = compound: CCN(CC)Cc1ccc2cc(COC(=O)Nc3ccc(C(=O)NO)cc3)ccc2c1 [givinostat]
Summary of the method: as §1

barasertib = compound: CCN(CCCOc1ccc2c(Nc3cc(CC(=O)Nc4cccc(F)c4)[nH]n3)ncnc2c1)CCOP(=O)(O)O [barasertib]
Summary of the method: as §1

[6] = compound: CC[C@@H]1C(=O)N(C)c2cnc(Nc3ccc(C(=O)NC4CCN(C)CC4)cc3OC)nc2N1C1CCCC1
Summary of the method: as §1

volasertib = compound: CC[C@@H]1C(=O)N(C)c2cnc(Nc3ccc(C(=O)N[C@H]4CC[C@H](N5CCN(CC6CC6)CC5)CC4)cc3OC)nc2N1C(C)C [volasertib]
Summary of the method: as §1

[7] = compound: CC[C@H](C)N1C=C(C2=C(C=C(C=C21)C3=CN=C(C=C3)N4CCNCC4)C(=O)NCC5=C(C=C(NC5=O)C)C)C
Summary of the method: as §1

epoxomicin = compound: CC[C@H](C)[C@@H](C(=O)N[C@@H]([C@@H](C)O)C(=O)N[C@@H](CC(C)C)C(=O)[C@]1(CO1)C)NC(=O)[C@H]([C@@H](C)CC)N(C)C(=O)C [epoxomicin]
Summary of the method: as §1

[8] = compound: CCn1c(C(=O)N(C2CC2)C2CC2)cc2c3c(ncn3C)c(Nc3cc(C)n(C)n3)nc21
Summary of the method: as §1

[9] = compound: CCn1cc(-c2ccnc3[nH]c(-c4cccc(CN(C)C)c4)cc23)c(-c2ccc(NC(=O)N(C)C)cc2)n1
Summary of the method: as §1

[10] = compound: CN(C)CC(=O)Nc1ccc2[nH]c(=O)c3ccccc3c2c1
Summary of the method: as §1

rosiglitazone = compound: CN(CCOC1=CC=C(C=C1)C[C@H]2C(=O)NC(=O)S2)C3=CC=CC=N3 (racemic) [rosiglitazone]
Summary of the method: as §1

[11] = compound: CN1C2=C(C3=C1C(=O)N(N=C3)CC4=CC(=CC=C4)N)SC(=C2)S(=O)C
Summary of the method: as §1

[12] = compound: CN1CCC(CNc2ccc3ncc(-c4cccc(OC(F)(F)F)c4)n3n2)CC1
Summary of the method: as §1

[13] = compound: CC1=NC(=CC=C1)C2=C(N=C(N2)C(C)(C)C)C3=CC4=NC=CN=C4C=C3
Summary of the method: as §1

Measured: log2 fold change

FKBP14 (UniProt Q9NWM8)
inactive: [1] 0.007 | [2] 0.029 | [3] 0.046 | Nexturastat A 0.09 | vemurafenib -0.014 | [4] -0.009 | [5] 0.018 | givinostat 0.155 | barasertib -0.006 | [6] -0.04 | volasertib 0.12 | [7] 0.054 | epoxomicin -0.01 | [8] 0.045 | [9] -0.032 | [10] 0.036 | rosiglitazone 0.038 | [11] -0.219 | [12] 0.121

FASTKD1 (UniProt Q53R41)
inactive: [1] -0.066 | [2] -0.138 | [13] 0.017 | Nexturastat A 0.013 | vemurafenib 0.065 | givinostat 0.156 | barasertib 0.096 | [6] -0.023 | [7] -0.088 | epoxomicin 0.155 | [9] 0.051 | [10] 0.064 | [11] 0.072 | [12] -0.188

FAM89A (UniProt Q96GI7)
inactive: [1] 0.074 | [2] -0.007 | [13] 0.041 | [5] 0.059 | givinostat 0.039 | barasertib 0.097 | [6] 0.08 | [7] -0.073 | [8] 0.034 | rosiglitazone -0.035

FERMT2 isoform 3 (UniProt Q96AC1)
inactive: [1] -0.15 | [2] 0.046 | [3] 0.098 | [13] -0.001 | Nexturastat A -0.218 | [4] -0.072 | [5] -0.131 | givinostat -0.283 | barasertib 0.05 | volasertib -0.04 | [7] -0.006 | epoxomicin -0.076 | [8] 0.159 | [9] 0.337 | rosiglitazone -0.106 | [11] -0.033 | [12] -0.001

FAT1 (UniProt Q14517)
inactive: [1] -0.036 | [2] -0.218 | [3] -0.029 | [13] 0.053 | Nexturastat A 0.104 | vemurafenib -0.199 | [4] -0.051 | [5] -0.067 | givinostat 0.044 | barasertib 0.045 | volasertib 0.009 | [7] -0.048 | epoxomicin -0.05 | [9] -0.018 | [10] 0.07 | [11] -0.11 | [12] 0.082

FCHSD1 (UniProt Q86WN1)
inactive: [1] -0.173 | [2] 0.078 | [3] -0.119 | [13] -0.072 | Nexturastat A -0.038 | [4] 0.088 | givinostat 0.001 | [6] 0.072 | volasertib -0.12 | epoxomicin -0.006 | [8] -0.045 | [9] 0.004 | [11] -0.081 | [12] 0.008

Retrieved one by one from the entries so far (two):
FAT1 (UniProt Q14517)
inactive: [1] -0.036 | [2] -0.218 | [3] -0.029 | [13] 0.053 | Nexturastat A 0.104 | vemurafenib -0.199 | [4] -0.051 | [5] -0.067 | givinostat 0.044 | barasertib 0.045 | volasertib 0.009 | [7] -0.048 | epoxomicin -0.05 | [9] -0.018 | [10] 0.07 | [11] -0.11 | [12] 0.082

FASTKD1 (UniProt Q53R41)
inactive: [1] -0.066 | [2] -0.138 | [13] 0.017 | Nexturastat A 0.013 | vemurafenib 0.065 | givinostat 0.156 | barasertib 0.096 | [6] -0.023 | [7] -0.088 | epoxomicin 0.155 | [9] 0.051 | [10] 0.064 | [11] 0.072 | [12] -0.188

Continued.

FANCA (UniProt O15360)
inactive: [6] 0.098

FMR1NB (UniProt Q8N0W7)
inactive: Nexturastat A -0.333 | epoxomicin 0.203

FGG (UniProt P02679)
inactive: [2] 0.067 | [3] -0.093 | [4] -0.214 | volasertib -0.042 | [9] 0.035 | [12] 0.137

FBXO11 isoform 5 (UniProt Q86XK2)
inactive: [1] 0.006 | [3] 0.037 | Nexturastat A 0.119 | [4] -0.175 | [5] -0.008 | givinostat 0.112 | volasertib 0.324 | epoxomicin 0.098 | [8] 0.059

FAM98C (UniProt Q17RN3)
inactive: [5] -0.04 | [9] 0.091 | [12] -0.015

FGGY isoform 3 (UniProt Q96C11)
inactive: [2] -0.091 | [3] 0.103 | [13] 0.026 | Nexturastat A 0 | vemurafenib 0.09 | [4] -0.064 | [5] 0.116 | givinostat -0.016 | barasertib -0.142 | volasertib 0.081 | epoxomicin -0.021 | [8] -0.044 | [9] 0.042 | [10] 0.095 | rosiglitazone 0.12 | [11] 0.027 | [12] -0.006

FNDC3A (UniProt Q9Y2H6)
inactive: [6] 0.051

FNIP1 (UniProt Q8TF40)
inactive: [2] 0.248 | [3] -0.208 | Nexturastat A -0.046 | [4] -0.286 | [5] -0.007 | givinostat 0.116 | barasertib 0.011 | volasertib -0.016 | epoxomicin -0.064 | [8] -0.134 | [9] -0.226 | rosiglitazone -0.028 | [11] -0.16 | [12] 0.142

FMNL1 isoform 3 (UniProt O95466)
inactive: [1] 0.205 | Nexturastat A 0.669 | barasertib 0.169 | epoxomicin -0.128 | rosiglitazone -0.284

FHL1 isoform 4 (UniProt Q13642)
inactive: [1] -0.199 | [3] 0.042 | Nexturastat A 0.153 | vemurafenib -0.162 | [4] -0.074 | givinostat -0.015 | barasertib 0.045 | volasertib 0.035 | [7] -0.373 | epoxomicin -0.236 | [8] -0.021 | [10] -0.143 | rosiglitazone 0.15 | [11] -0.013

FNBP1 (UniProt Q96RU3)
inactive: [11] 0.01

FBXL8 (UniProt Q96CD0)
inactive: [1] -0.102 | Nexturastat A -0.207 | givinostat 0.034 | barasertib -0.005 | [6] 0.014 | epoxomicin -0.067 | [8] -0.046 | rosiglitazone -0.136

FIZ1 (UniProt Q96SL8)
inactive: [1] -0.164 | [13] -0.047 | Nexturastat A 0.102 | vemurafenib 0.13 | [5] -0.022 | [6] 0.169 | [7] 0.088 | epoxomicin -0.071 | [9] -0.125 | [10] -0.06 | [11] 0.138 | [12] 0.024

FBXO2 (UniProt Q9UK22)
inactive: [9] -0.155 | [12] 0.05

FBXW11 (UniProt Q9UKB1)
inactive: [2] 0.131 | [3] 0.032 | [13] 0.134 | vemurafenib -0.137 | [4] -0.016 | givinostat 0.024 | volasertib 0.103 | [8] -0.003 | [9] -0.029 | [10] -0.075 | [11] 0.072 | [12] -0.094

FGF17 (UniProt O60258)
inactive: [9] 1.55 | [12] 0.237

FAM53B (UniProt Q14153)
inactive: [2] 0.133 | [13] -0.007 | Nexturastat A 0.127 | vemurafenib 0.056 | [5] 0.144 | givinostat 0.126 | [6] -0.011 | epoxomicin 0.063 | [8] -0.05 | [10] -0.008 | [11] -0.016

FAM83G (UniProt A6ND36)
inactive: Nexturastat A 0.096 | vemurafenib -0.035 | epoxomicin -0.093 | [10] 0.002 | [11] 0.012

FBXO33 (UniProt Q7Z6M2)
inactive: Nexturastat A 0.02 | barasertib 0.078 | epoxomicin -0.081 | rosiglitazone -0.256

FLT1 (UniProt P17948)
inactive: [3] -0.139 | vemurafenib -0.231 | [4] -0.256 | [6] 0.069 | volasertib -0.015 | [10] -0.168 | [11] -0.071

FAM219B (UniProt Q5XKK7)
inactive: [1] -0.115 | [3] -0.04 | [4] -0.155 | [5] 0.051 | volasertib 0.135 | [9] 0.064 | [12] -0.018

FAXDC2 (UniProt Q96IV6)
inactive: [13] -0.139 | barasertib 0.18 | [7] -0.017 | rosiglitazone 0.038

FKBP10 (UniProt Q96AY3)
inactive: [1] 0.181 | [9] -0.134 | [12] 0.099

FARP2 (UniProt O94887)
inactive: [3] -0.058 | vemurafenib -0.12 | [4] -0.241 | volasertib -0.487 | [10] -0.136 | [11] 0.203

FBXL4 (UniProt Q9UKA2)
inactive: [1] -0.169 | Nexturastat A 0.436 | vemurafenib -0.021 | [5] -0.023 | epoxomicin 0.373 | [9] 0.696 | [10] 0.344 | [11] 0.135 | [12] 0.339

FBRSL1 (UniProt Q9HCM7)
inactive: [2] 0.086 | Nexturastat A -0.07 | givinostat 0.239 | [7] 0.048 | epoxomicin 0.156 | [8] 0.118
